Results as given in PubChem BioAssay AID2685 (National Center for Advancing Translational Sciences (NCATS), 2010).
The list shows a part of the results. Further columns of the screen follow, without active or inactive calls. Compounds called inactive in the main read-out are mostly missing here. Words in brackets tell the shape of the fitted curve; partial curves, single points and poor fits give uncertain potencies.

Assay: qHTS Assay for Lipid Storage Modulators in Drosophila S3 Cells;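 as to cell number change: cells counted by Cell Tracker Red CMTPX staining in the red channel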
Settings: BODIPY lipid droplet fluorescence, 18-24 h; for cell number change: measured here: cell count max response, cells fed with added oleic acid
Outline: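 Drosophila S3 cells got compounds at several concentrations plus oleic acid (400 uM solution). Laser-scanning cytometry with 488 nm excitation read lipid droplets at 500-530 nm and cells at 575-640 nm. Percent activity was relative to 20 uM Triacsin C.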

[1] = measured here: cell number channel AC50, cells fed with added oleic acid
[2] = measured here: lipid fluorescence (Fed channel) AC50, cells fed with added oleic acid

Structure (SMILES)	cell number change [%]	AC50 [1]	AC50 [2]
N#CCCN(CCC#N)C(=O)c1ccc(Cl)cc1	-34.9	29.1 µM [falling, single point]	0.184 µM [falling, full curve]
CCN(CC)S(=O)(=O)c1ccc(C(=O)Oc2ccc3c(c2)OCO3)cc1	-54.7	7.31 µM [falling, partial curve]	29.1 µM [falling, single point]
Cc1cc(C)nc(Nc2n[nH]c(-c3ccc(C(C)(C)C)cc3)n2)n1	23.7		
N/C(=N\OC(=O)Cc1ccc(-c2ccccc2)cc1)c1cccnc1		0.291 µM [falling, partial curve, poor fit]	
O=C(O)c1ccc(-c2nc(-c3cccc(C(F)(F)F)c3)cs2)cc1	-4.3	6.51 µM [rising, single point]	
CC(C)c1ccccc1NC(=O)COC(=O)c1c2c(nc3ccccc13)CCN(Cc1ccccc1)C2	-11.8		29.1 µM [falling, partial curve, poor fit]
CC(C)NC(=O)C(=O)NCCN1CCN(S(=O)(=O)c2ccc(Cl)cc2)CC1	-25.5		
CC(=O)c1cccc(NS(=O)(=O)c2ccc(NC(=O)N3CCCCC3)cc2)c1	-19		10 µM [falling, single point]
Cc1cc(C(=O)C[N+]2(C)CCOCC2)c(C)n1-c1ccc(Br)cc1	-21.9		
CCN(CC)S(=O)(=O)c1ccc2c(c1)c(=O)c(C(=O)NCc1ccco1)cn2C	15.6	2.31 µM [rising, single point]	
O=c1[nH]c2ccccc2nc1/C=C/c1ccc(O)cc1	-56	20.6 µM [falling, single point]	16.4 µM [falling, partial curve]
Cc1ccc(NC(CNS(=O)(=O)c2ccc(Cl)cc2)c2ccccc2)cc1 (stereo not given)	-35.2	0.0517 µM [falling, full curve]	
Cc1ccc(C)c(NC(=O)CN(C)C(=O)COc2cccc3c2OC(C)(C)C3)c1	-6.59		29.1 µM [falling, single point]
COC(=O)c1ccc(OCC2NCCc3cc(OC)c(OC)cc32)cc1 (stereo not given)	-2.89	4.61 µM [rising, single point]	
CC1=C(C(=O)Nc2ccccc2F)C(c2ccsc2)C2=C(CC(C)(C)CC2=O)N1 (stereo not given)	2.38		
CCSc1nc2c(c(=O)n1Cc1ccccc1)SC(C)C2 (stereo not given)	94.1	5.17 µM [rising, partial curve]	5.17 µM [rising, full curve]
Cc1ccc(-c2nnn(CC(=O)N(CC(=O)NC3CCCC3)c3ccc(F)c(Cl)c3)n2)o1	-59.4	9.2 µM [falling, partial curve, poor fit]	18.4 µM [falling, partial curve]
Cc1cccc(N(C(=O)Cn2nnc3ccccc32)C(C(=O)NCc2ccco2)c2ccncc2)c1 (stereo not given)	23.9		0.411 µM [rising, partial curve, poor fit]
CCC(=O)N1c2ccc(S(=O)(=O)N3CCN(c4ccccc4Cl)CC3)cc2CC1C (stereo not given)	1.33		29.1 µM [rising, single point]
Cc1nn(-c2ccccc2)c2sc(C(=O)N3CCCCC3)cc12	-2.08		
COc1cc2oc3ccccc3c2cc1N(CC(=O)N(C)C)S(=O)(=O)c1ccc(C)cc1	10.2		29.1 µM [rising, single point]

Three compounds from above, reduced to cell number change [%].

| Structure (SMILES) | cell number change [%] |
| --- | --- |
| O=C(O)c1ccc(-c2nc(-c3cccc(C(F)(F)F)c3)cs2)cc1 | -4.3 |
| CCN(CC)S(=O)(=O)c1ccc2c(c1)c(=O)c(C(=O)NCc1ccco1)cn2C | 15.6 |
| O=c1[nH]c2ccccc2nc1/C=C/c1ccc(O)cc1 | -56 |

Next entries follow.

Structure (SMILES)	cell number change [%]	AC50 [1]	AC50 [2]
CCOC(=O)c1ccc(NC(=O)CC2C(=O)N(c3ccc(F)cc3)C(=O)N2CCCOC)cc1 (stereo not given)	-25.2		
COc1ccc(CN(CC2CCC(C(=O)O)CC2)C(=S)Nc2cccc(C)c2)cc1 (stereo not given)	-37.9		0.103 µM [falling, full curve, poor fit]
CC(C)Cn1c(=O)c2sccc2n2c(CCCC(=O)N3CCC(N4CCCCC4)CC3)nnc12	-18.3		18.4 µM [falling, single point]
COc1ccccc1COC(=O)Nc1c(C)nn(C)c1Cl	21.1		
S=C(NCC1CCCO1)Nc1ccc(Nc2ccccc2)cc1 (stereo not given)	-7.39		8.2 µM [falling, partial curve, poor fit]
COC(=O)c1ccc(/C=N\NC(=O)c2c(C)nc3ccc(Cl)cn23)cc1	9.82		
Cc1ccc2[nH]c(=O)c(CN(Cc3cccnc3)C(=O)c3ccncc3)cc2c1	-17.7		7.31 µM [rising, partial curve]
O=C(COn1nnc2ccc(C(F)(F)F)cc21)Nc1c(Cl)cccc1Cl	30.9	4.61 µM [rising, full curve, poor fit]	
O=C(Nc1ccccc1)Nc1nc(-c2ccc(F)c(F)c2)cs1	-1.38		6.51 µM [falling, single point]
CCCOc1ccc(C(=O)OCC(=O)c2c(N)n(C)c(=O)n(C)c2=O)cc1OCC	-30.9	2.91 µM [falling, full curve]	2.59 µM [falling, full curve]
O=C(N/C=N/O)C1=NOC(CNc2ncc(C(F)(F)F)cc2Cl)C1 (stereo not given)	-9.83		0.411 µM [rising, full curve, poor fit]
Cc1cc(-c2nc(C)c(-c3nnc(SCC(=O)Nc4cc(Cl)cc(Cl)c4)n3C)s2)no1	-20.3		25.9 µM [falling, partial curve]
CC(=O)Nc1ccc(NC(=O)CN(C)S(=O)(=O)c2ccc3c(c2)CCC(=O)N3)cc1	10.6		
Cc1cc(C)cc(C(=O)Nn2cnnc2)c1	18.6		29.1 µM [rising, single point]
CC1CCCC(C)N1C(=O)CSc1nnc(CSc2ncccn2)n1C (stereo not given)	-15.3		20.6 µM [falling, single point]
Cc1ccc(-n2c(C)cc(C3N=C(N)Nc4nc5ccccc5n43)c2C)c(C)c1 (stereo not given)	-91.2	29.1 µM [falling, single point]	18.4 µM [falling, single point]
COC(=O)c1c(-c2ccc(C(C)(C)C)cc2)csc1NC(=O)C1C2CCC(O2)C1C(=O)O (stereo not given)	-25.8		29.1 µM [falling, single point]
COc1ccc(/C=N/Nc2nnc(C)n2N)cc1OC(C)=O	-52.4	25.9 µM [falling, partial curve, poor fit]	8.2 µM [falling, partial curve]
c1cc2c(cc1-c1cnc3n1CCC3)OCCO2	-25.2		
CCCOc1ccc(/C=N/NC(=O)C2CC2)c(OCCC)c1	17.1		
CCOc1cc(/C=C2/COc3ccccc3C2=O)ccc1OCC(=O)N(C)C	8.77		

Structure (SMILES)	cell number change [%]	AC50 [1]	AC50 [2]
Nc1cc(N)c(OCC(F)(F)F)cc1OCC(F)(F)F	39.2	9.2 µM [rising, partial curve, poor fit]	4.11 µM [rising, single point]
CCOC(=O)Cc1csc(NC(=O)c2ccc(Cl)s2)n1	-15.9		
O=C(Nc1ccccc1C(=O)N1CCCCC1)C1CCCCC1	0.708		0.58 µM [falling, full curve, poor fit]
COc1cc(C(=O)Nc2nc3ccccc3s2)ccc1OCc1c(C)noc1C	87.1	13 µM [rising, partial curve]	14.6 µM [rising, partial curve]
COc1cccc(C(=O)NC(=S)N2c3ccccc3CC2C)c1OC (stereo not given)	4.27		
N#C/C(=C\c1cccnc1)c1ccccc1[N+](=O)[O-]	-0.901		0.58 µM [falling, single point]
O=C(NCc1ccccc1)c1ccc(Oc2ccc(C(=O)NCc3ccccc3)cc2)cc1	-17.8	0.164 µM [rising, single point]	
O=C(CCN1C(=O)c2ccccc2C1=O)N1CCC(c2ccccc2)C1 (stereo not given)	6.69		
CC(=O)c1c(C)[nH]c(C(=O)NNC(=O)COc2ccc(Cl)cc2C)c1C		0.461 µM [falling, single point]	
COc1cccc2cccc(/C=N/n3cnnc3)c12	-5.25	0.116 µM [rising, full curve, poor fit]	0.103 µM [rising, full curve, poor fit]
O=[N+]([O-])c1cnc(Sc2ccncn2)s1	-55.7	2.59 µM [falling, full curve]	3.66 µM [falling, partial curve]
CC(C)c1ccc(C2c3[nH]c4ccccc4c3C[C@H]3C(=O)N(c4ccccc4C(=O)N4CCC[C@H]4C(=O)O)C(=O)N23)cc1 (stereo not given in full)	1.91		0.13 µM [falling, full curve, poor fit]
CCc1cccc(CC)c1NC(=O)Cn1c(-c2ccc(F)cc2)noc1=O	-16.3		18.4 µM [falling, single point]
CC(C)c1ccc(N(C(=O)c2cc3ccccc3oc2=O)C2C=CS(=O)(=O)C2)cc1 (stereo not given)	-9.79		10.3 µM [falling, partial curve, poor fit]
COc1ccc(CN(CCC#N)C(=S)NC(=O)c2ccccc2)cc1	-2.75		1.46 µM [rising, partial curve]
O=C(Nc1nc(-c2ccc(Cl)cc2)cs1)c1cccnc1	13.6		
CN=Cc1cc(-c2ccccc2)sc1O	-43.9	29.1 µM [falling, single point]	
O=C(COc1ccccc1F)Nc1nnc(-c2ccncc2)s1			0.13 µM [rising, full curve, poor fit]
COc1ccc(C)cc1NC(=O)c1ccc(S(=O)(=O)N2CCCCC2)cc1	35.7	29.1 µM [rising, single point]	

An excerpt from above in order of molar mass, rising.
Structure (SMILES)	cell number change [%]	AC50 [1]	AC50 [2]
CCSc1nc2c(c(=O)n1Cc1ccccc1)SC(C)C2 (stereo not given)	94.1	5.17 µM [rising, partial curve]	5.17 µM [rising, full curve]
O=C(CCN1C(=O)c2ccccc2C1=O)N1CCC(c2ccccc2)C1 (stereo not given)	6.69		
CC(C)c1ccc(N(C(=O)c2cc3ccccc3oc2=O)C2C=CS(=O)(=O)C2)cc1 (stereo not given)	-9.79		10.3 µM [falling, partial curve, poor fit]
